Laboratory results taken from publication PMC9203020.
Results are given in words; binding and its absence hold for the method and conditions named. Binding seen in cells or lysates may run through a third protein. A result given as binding can be weak or reduced; the word gives no strength.

The chains behind the UniProt entries cited, without tags or fusion partners. Where a name states a change or a piece, a line headed by the entry shows the natural chain unless it says otherwise.
UniProt Q7S5E3: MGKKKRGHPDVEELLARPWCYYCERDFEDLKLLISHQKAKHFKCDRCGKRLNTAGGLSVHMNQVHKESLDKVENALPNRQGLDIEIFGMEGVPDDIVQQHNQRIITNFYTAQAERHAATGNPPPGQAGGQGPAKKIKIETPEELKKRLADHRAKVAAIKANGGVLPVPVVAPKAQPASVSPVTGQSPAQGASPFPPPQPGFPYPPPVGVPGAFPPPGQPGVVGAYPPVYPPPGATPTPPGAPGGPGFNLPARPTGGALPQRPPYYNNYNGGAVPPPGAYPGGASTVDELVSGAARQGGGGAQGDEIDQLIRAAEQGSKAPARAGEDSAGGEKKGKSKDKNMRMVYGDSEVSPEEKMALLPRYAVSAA
UniProt Q7SEI1: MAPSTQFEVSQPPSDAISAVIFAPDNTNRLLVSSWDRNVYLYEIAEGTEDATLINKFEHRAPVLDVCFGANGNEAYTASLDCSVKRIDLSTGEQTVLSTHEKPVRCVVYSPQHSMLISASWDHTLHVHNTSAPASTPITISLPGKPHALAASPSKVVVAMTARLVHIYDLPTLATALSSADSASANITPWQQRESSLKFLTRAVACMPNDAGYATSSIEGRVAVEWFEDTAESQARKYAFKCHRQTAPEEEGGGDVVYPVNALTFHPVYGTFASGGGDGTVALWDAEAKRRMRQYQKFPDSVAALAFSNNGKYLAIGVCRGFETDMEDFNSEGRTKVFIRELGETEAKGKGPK

Biological target: Myc-BuGZ (Neurospora crassa) (UniProt Q7S5E3)
Experiment: co-IP; anti-c-Myc monoclonal antibody and protein G beads on N. crassa mycelium extracts (2 mg/mL total protein; 50 mM HEPES pH 7.4, 137 mM NaCl, 10% glycerol), 4°C; western blot for endogenous Bub3

binding: binds
Substance: Bub3 (from UniProt Q7SEI1)
